Assay results published in patent publication US20160376339A1 (CURACLE, published 2016).
Results are given in words; binding and its absence hold for the method and conditions named. In cells and extracts the contact can be indirect. Some entries that bind do so weakly or less than the wild type. For some of these results: Tags and fused reporters may be left off the sequences shown. One block for each binder: values may come before it.

What was measured:
Flag-PDK1 [1] = target: T1, Flag-PDK1 (UniProt O15530 1-556, limits assumed); assay: co-immunoprecipitation of GFP-tagged CD with Flag-PDK1
T1 construct: Expressed in HEK293T cells for co-immunoprecipitation; not shown: Flag tag
T1 sequence (looked up): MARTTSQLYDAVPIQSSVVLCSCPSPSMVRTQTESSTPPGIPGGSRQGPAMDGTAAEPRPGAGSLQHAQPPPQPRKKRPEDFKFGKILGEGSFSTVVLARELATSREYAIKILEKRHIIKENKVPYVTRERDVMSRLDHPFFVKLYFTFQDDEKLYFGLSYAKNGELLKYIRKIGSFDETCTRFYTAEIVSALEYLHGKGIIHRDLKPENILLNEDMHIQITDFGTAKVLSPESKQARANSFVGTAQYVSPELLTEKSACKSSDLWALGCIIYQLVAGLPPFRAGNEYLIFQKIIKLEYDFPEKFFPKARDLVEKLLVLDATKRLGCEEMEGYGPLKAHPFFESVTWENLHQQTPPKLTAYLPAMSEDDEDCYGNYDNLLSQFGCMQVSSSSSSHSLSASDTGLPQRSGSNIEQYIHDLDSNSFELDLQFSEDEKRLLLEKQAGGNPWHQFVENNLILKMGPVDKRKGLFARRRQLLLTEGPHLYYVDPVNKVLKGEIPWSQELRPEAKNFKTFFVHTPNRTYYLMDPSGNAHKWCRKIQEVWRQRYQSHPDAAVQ

Flag-PDK1 [2] = target: T1, Flag-PDK1; assay: co-immunoprecipitation of GFP-tagged AMIGO2 constructs with Flag-PDK1
[3] = target: T2, 3-phosphoinositide-dependent kinase 1 (PDK1), endogenous in HUVECs (human) (UniProt O15530); assay: co-immunoprecipitation from HUVECs (IP anti-AMIGO2, blot anti-PDK1)
T2 sequence (looked up): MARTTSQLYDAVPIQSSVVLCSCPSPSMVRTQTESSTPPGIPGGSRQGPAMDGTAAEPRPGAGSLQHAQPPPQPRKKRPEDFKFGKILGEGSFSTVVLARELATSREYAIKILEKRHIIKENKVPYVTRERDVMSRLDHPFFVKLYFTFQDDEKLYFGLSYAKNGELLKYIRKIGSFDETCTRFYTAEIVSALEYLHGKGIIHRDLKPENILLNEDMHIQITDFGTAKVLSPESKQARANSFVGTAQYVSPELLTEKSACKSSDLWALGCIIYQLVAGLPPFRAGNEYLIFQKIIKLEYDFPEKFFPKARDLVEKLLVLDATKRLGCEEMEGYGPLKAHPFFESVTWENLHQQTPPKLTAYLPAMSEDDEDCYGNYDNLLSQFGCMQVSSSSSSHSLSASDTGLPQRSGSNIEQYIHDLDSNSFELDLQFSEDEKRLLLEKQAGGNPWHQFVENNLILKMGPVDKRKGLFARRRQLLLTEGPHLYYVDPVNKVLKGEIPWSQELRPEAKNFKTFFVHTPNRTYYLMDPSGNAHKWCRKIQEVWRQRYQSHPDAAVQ

[4] = target: T2, 3-phosphoinositide-dependent kinase 1 (PDK1), endogenous in HUVECs (human); assay: co-immunoprecipitation from VEGF-treated HUVECs (IP anti-AMIGO2, blot endogenous PDK1)
[5] = target: T2, 3-phosphoinositide-dependent kinase 1 (PDK1), endogenous in HUVECs (human); assay: co-immunoprecipitation of endogenous proteins from HUVECs (IP anti-AMIGO2, blot anti-PDK1)
Flag-PDK1 [6] = target: T1, Flag-PDK1; assay: co-immunoprecipitation (IP Flag, blot anti-GFP)
Flag-PDK1 [7] = target: T1, Flag-PDK1; assay: co-immunoprecipitation of GFP-tagged truncated AMIGO2 with Flag-PDK1

B1: AMIGO2^CD (GFP-tagged cytosolic domain of AMIGO2, 420-522aa) (protein, not shown: large carriers)
chain: TPCPCKCKTKRQKNMLHQSNAHSSILSPGPASDASADERKAGAGKRVVFLEPLKDTAAGQNGKVRLFPSEAVIAEGILKSTRGKSDSDSVNSVFSDTPFVAST
- binding (Flag-PDK1 [1]): binds
- binding (Flag-PDK1 [2]): binds

B4: AMIGO2^491aa (GFP-tagged AMIGO2 truncated after residue 491) (receptor, not shown: large carriers)
chain: VCPTACICATDIVSCTNKNLSKVPGNLFRLIKRLDLSYNRIGLLDSEWIPVSFAKLNTLILRHNNITSISTGSFSTTPNLKCLDLSSNKLKTVKNAVFQELKVLEVLLLYNNHISYLDPSAFGGLSQLQKLYLSGNFLTQFPMDLYVGRFKLAELMFLDVSYNRIPSMPMHHINLVPGKQLRGIYLHGNPFVCDCSLYSLLVFWYRRHFSSVMDFKNDYTCRLWSDSRHSRQVLLLQDSFMNCSDSIINGSFRALGFIHEAQVGERLMVHCDSKTGNANTDFIWVGPDNRLLEPDKEMENFYVFHNGSLVIESPRFEDAGVYSCIAMNKQRLLNETVDVTINVSNFTVSRSHAHEAFNTAFTTLAACVASIVLVLLYLYLTPCPCKCKTKRQKNMLHQSNAHSSILSPGPASDASADERKAGAGKRVVFLEPLKDTAAGQNGKVRLFPSEAV
- binding (Flag-PDK1 [7]): binds

Results, then the binder that gave them:

- binding [3]: binds
- binding [4]: binds
- binding [5]: binds
B2: adhesion molecule with Ig-like domain 2 (AMIGO2), endogenous in HUVECs (receptor)
chain: VCPTACICATDIVSCTNKNLSKVPGNLFRLIKRLDLSYNRIGLLDSEWIPVSFAKLNTLILRHNNITSISTGSFSTTPNLKCLDLSSNKLKTVKNAVFQELKVLEVLLLYNNHISYLDPSAFGGLSQLQKLYLSGNFLTQFPMDLYVGRFKLAELMFLDVSYNRIPSMPMHHINLVPGKQLRGIYLHGNPFVCDCSLYSLLVFWYRRHFSSVMDFKNDYTCRLWSDSRHSRQVLLLQDSFMNCSDSIINGSFRALGFIHEAQVGERLMVHCDSKTGNANTDFIWVGPDNRLLEPDKEMENFYVFHNGSLVIESPRFEDAGVYSCIAMNKQRLLNETVDVTINVSNFTVSRSHAHEAFNTAFTTLAACVASIVLVLLYLYLTPCPCKCKTKRQKNMLHQSNAHSSILSPGPASDASADERKAGAGKRVVFLEPLKDTAAGQNGKVRLFPSEAVIAEGILKSTRGKSDSDSVNSVFSDTPFVAST

- binding (Flag-PDK1 [6]): binds
B3: GFP-AMIGO2 (EGFP-tagged full-length human AMIGO2) (receptor, not shown: large carriers)
chain: VCPTACICATDIVSCTNKNLSKVPGNLFRLIKRLDLSYNRIGLLDSEWIPVSFAKLNTLILRHNNITSISTGSFSTTPNLKCLDLSSNKLKTVKNAVFQELKVLEVLLLYNNHISYLDPSAFGGLSQLQKLYLSGNFLTQFPMDLYVGRFKLAELMFLDVSYNRIPSMPMHHINLVPGKQLRGIYLHGNPFVCDCSLYSLLVFWYRRHFSSVMDFKNDYTCRLWSDSRHSRQVLLLQDSFMNCSDSIINGSFRALGFIHEAQVGERLMVHCDSKTGNANTDFIWVGPDNRLLEPDKEMENFYVFHNGSLVIESPRFEDAGVYSCIAMNKQRLLNETVDVTINVSNFTVSRSHAHEAFNTAFTTLAACVASIVLVLLYLYLTPCPCKCKTKRQKNMLHQSNAHSSILSPGPASDASADERKAGAGKRVVFLEPLKDTAAGQNGKVRLFPSEAVIAEGILKSTRGKSDSDSVNSVFSDTPFVAST
